Experimental data from PubChem BioAssay AID493014 (National Center for Advancing Translational Sciences (NCATS), 2011).
Hit rate of the full screen: of about 340,000 compounds, about 170 (0.05%) were called active. This list was built around the results that the source calls inconclusive (neither active nor inactive); the mix of calls is not that of the screen. Calls come from the whole dose curve; as a rule, active = well fitted inhibition curve with a large enough effect in the signal ratio, with a control signal flat (not every such curve was filed as active); inconclusive = small, poorly fitted or top-dose-only effect, or effect the other way, or a change in a side signal; inactive = flat fitted curve, though single readings scatter; the % refers to the signal ratio. A potency beside an inconclusive call is a rough fit, not a confirmed value.

Assay: qHTS Assay to Find Inhibitors of Chronic Active B-Cell Receptor Signaling;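 for activity change, negative = inhibition: plate controls were basal doxycycline-induced cells for no effect and cells given 10 µM MG132 for full effect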
Settings: ABC-DLBCL IkBa-CBG/CBR reporter, luminescence ratio (green luciferase fused to IkBa over red control in TMD8 lymphoma cells), 4 h; activity change, negative = inhibition: at 46.1 µM (top of the series)
Outline: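 Cell line TMD8 (human ABC DLBCL), stably expressing tet-inducible CBG68-IkBa fusion and CBR; IMDM/0.5% FBS; cpd up to 46 uM; dox induction, 4 h, 37C/5% CO2; dual luminescence; green/red ratio; MG132 control.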
Potency is the fitted concentration of half-maximal effect.

Row | Structure (SMILES) | Potency | activity change, negative = inhibition
1 | CC/C(=N\NC(=O)c1cccnc1)c1ccc2c(c1)OCCO2 | inconclusive: 31.6 µM [rising, single point] | 
2 | Cc1csc(NC(=O)c2cc3c(s2)-c2ccccc2OC3)n1 |  | inconclusive: 8.79%
3 | CCOC(=O)Cn1c(C)cc(COC)c(C#N)c1=O |  | inactive: 8.82%
4 | C=CCOc1c(Br)cc(/C=N/NC(N)=O)cc1OC |  | inconclusive: -16.5%
5 | COc1cc(CNCCc2c[nH]c3ccccc23)ccc1OCc1ccccc1F | inconclusive: 7.94 µM [falling, partial curve, poor fit] | 
6 | COc1ccc(-c2nc(N)n(C(=O)c3cccs3)n2)cc1 |  | inconclusive: 12.3%
7 | Cc1cc(C)n2c(SCc3cccs3)nnc2n1 |  | inconclusive: 5.33%
8 | COc1ccc(CCn2c(-c3ccco3)nc3nc4ccccc4nc32)cc1 |  | inconclusive: 12.5%
9 | O=C(CN1CCN(S(=O)(=O)c2ccc(Br)cc2)CC1)Nc1ccc2c(c1)OCO2 |  | inconclusive: -4.46%
10 | COc1cc(C2C(C#N)=C(N)N(c3ccc(F)cc3)C3=C2S(=O)(=O)CC3)ccc1O (stereo not drawn) | inconclusive: 35.5 µM [falling, single point] | 
11 | O=C(NNC1CC(=O)N(c2ccc(Br)cc2)C1=O)c1ccccn1 (stereo not drawn) |  | inconclusive: 7.84%
12 | Cc1cc(N2C(=O)[C@@H]3[C@H](C2=O)[C@@H]2C[C@H]3C(Br)C2Br)no1 (stereo partly drawn) |  | inconclusive: -4.82%
13 | COc1ccc(-c2nn3c(-c4ccccc4)nnc3s2)cc1OC |  | inconclusive: -0.204%
14 | COc1ccc(S(=O)(=O)NCC(c2ccco2)S(=O)(=O)c2cccs2)cc1F (stereo not drawn) |  | inactive: -22.6%
15 | Cc1cccc2nc(CSCc3ccco3)cn12 |  | inconclusive: 2.77%
16 | C/C(Cn1cnc([N+](=O)[O-])n1)=N\NC(=O)c1ccccc1 | inconclusive: 6.51 µM [falling, single point] | 
17 | O=C(COC(=O)/C=C/c1cccc(Cl)c1)NC1CCCC1 |  | inactive: 2%
18 | COc1cc(C2C3=C(CCCC3=O)Nc3c2c(C)nn3-c2cccc(C)c2)cc(OC)c1O (stereo not drawn) |  | inactive: -8.1%
19 | Cc1ccc(NC(=O)CN2C(=O)S/C(=C/c3ccc(-c4cccc(C(=O)O)c4)o3)C2=O)cc1 |  | inconclusive: -2.71%
20 | Cn1cc(S(=O)(=O)CC(=O)Nc2ccc3c(c2)OCO3)c2ccccc21 | inconclusive: 29.1 µM [falling, single point] | 
21 | CCN1CCN(Cc2ccc(NC(=O)c3ccc(C)c(NC(=O)c4c[nH]c5cc(C(F)(F)F)ccc5c4=O)c3)cc2C(F)(F)F)CC1 |  | inconclusive: -3.81%
22 | O=C(/C=C/Nc1cccc(O)c1)c1ccccc1 | inconclusive: 11.2 µM [falling, partial curve] | 
23 | CCN1CCN(c2nc(-c3cccs3)nc3ccccc23)CC1 | inconclusive: 18.4 µM [rising, partial curve, poor fit] | 
24 | CCOC(=O)N1CCC(=NNC(=O)c2ccccc2F)CC1 | inconclusive: 6.51 µM [falling, single point] | 
25 | Cc1ccc(SCC(=O)O/N=C(\N)c2ccncc2)cc1 |  | inconclusive: 0.827%
26 | COc1ccc(S(=O)(=O)NCCc2csc3nc(-c4ccccc4)nn23)cc1OC | inconclusive: 10 µM [activator, partial curve, poor fit] | 

Row | Structure (SMILES) | Potency | activity change, negative = inhibition
27 | O=C(Nc1cccc(-c2cn3cccnc3n2)c1)c1ccc2c(c1)OCO2 | inconclusive: 25.1 µM [falling, single point] | 
28 | COc1ccc(C2=NN(C(C)=O)C(c3cccs3)C2)cc1OC (stereo not drawn) | inconclusive: 11.2 µM [falling, partial curve] | 
29 | COC(=O)[C@@]12CCCN1[C@H](c1ccc(-c3ccc(OC)cc3)c(OC)c1)[C@@H]1C(=O)N(C)C(=O)[C@@H]12 |  | inactive: 2.97%
30 | CCOC(=O)c1ccc(-c2c(-c3ccccc3OC)oc3ccccc23)cc1F |  | inconclusive: 18.5%
31 | COc1cccc(Cl)c1NC(=O)N1CCN(c2ccnc3cc(Cl)ccc23)CC1 |  | inconclusive: -3.06%
32 | COc1cc(N2N=C(c3ccccc3)CC2c2ccccc2)c(C=O)cc1C=O (stereo not drawn) |  | inactive: 3.07%
33 | CCN(CC)CCn1c2c(c(SCC(=O)Nc3ccccc3Cl)nc1=O)CCC2 |  | inactive: -10.6%
34 | COC(=O)c1cc(-c2c(-c3cc(OC)c(OC)c(OC)c3)noc2C)cc([N+](=O)[O-])c1 |  | inconclusive: -13.2%
35 | c1cncc(-c2nnc3sc(-c4ccco4)nn23)c1 |  | inactive: 20.4%
36 | CCc1ccc(-c2nc(NC(=O)c3ccc(OCC(=O)Nc4ccc(F)cc4)c(OC)c3)sc2C)cc1 |  | inconclusive: 9.15%
37 | CC(C)(C)C1CCc2[nH]c3ccccc3c(=O)c2C1 (stereo not drawn) |  | inactive: -1.23%
38 | CCC(CO)NCC(O)COCc1ccc2c(c1)OCO2 (stereo not drawn) |  | inconclusive: 14.4%
39 | COc1cc(/C(C)=N/N2CCN(c3ccccc3OC)CC2)ccc1O |  | inconclusive: -1.27%
40 | Cc1ccc2c(CC(=O)OC3CCOC3=O)coc2c1 (stereo not drawn) | inconclusive: 20 µM [falling, single point] | 
41 | Cc1c(NC(=O)/C(C#N)=C/c2ccc(-c3cccc(Cl)c3)o2)c(=O)n(-c2ccccc2)n1C |  | inconclusive: 4.24%
42 | O=C(C1CCN(S(=O)(=O)c2cccs2)CC1)N(c1ccccn1)C1CCCCC1 |  | inactive: -11.5%
43 | CCOC(=O)C1(CCOc2ccccc2)CCN(Cc2ccc(O)c(OC)c2)CC1 |  | inactive: -5.49%
44 | Cc1cc(C)n(-c2c(F)c(F)c(CN3CCCCC3)c(F)c2F)n1 |  | inconclusive: 2.95%
45 | CCCCN(CC)CCCNC(=O)CS(=O)(=O)Cc1nc(-c2cccc(OC)c2)oc1C |  | inconclusive: -15.5%
46 | CC(C)c1ccc2oc(-c3cc(N)ccc3O)nc2c1 | inconclusive: 35.5 µM [falling, single point] | 
47 | CCOc1cccc(C(=O)Nc2ccc3c(c2)OCCO3)c1 | inconclusive: 25.1 µM [falling, partial curve] | 
48 | CN(Cc1c(F)cccc1Cl)C(=O)CNC(=O)c1cccs1 |  | inactive: -18.1%
49 | C/C(=N/NC(=O)c1cccc(Br)c1)C1CC2CCC1C2 (stereo not drawn) | inconclusive: 22.4 µM [falling, partial curve] | 
50 | COc1ccc(Cl)cc1N1C(=O)C2CCCN2C1c1ccccc1F (stereo not drawn) |  | inconclusive: -18.3%
51 | Cc1c(C(=O)N(Cc2ccccc2)C2CCS(=O)(=O)C2)oc2ccccc12 (stereo not drawn) |  | inconclusive: -5.89%
52 | Cc1cc(C)c(S(=O)(=O)N2CCCOC2CNC(=O)C(=O)NCc2cccnc2)c(C)c1 (stereo not drawn) |  | inconclusive: 0.476%

Molecules listed so far containing a nitro group on carbon (2):
Row | Structure (SMILES) | Potency | activity change, negative = inhibition
16 | C/C(Cn1cnc([N+](=O)[O-])n1)=N\NC(=O)c1ccccc1 | inconclusive: 6.51 µM [falling, single point] | 
34 | COC(=O)c1cc(-c2c(-c3cc(OC)c(OC)c(OC)c3)noc2C)cc([N+](=O)[O-])c1 |  | inconclusive: -13.2%

(continued)

Row | Structure (SMILES) | Potency | activity change, negative = inhibition
53 | O=C(Nc1nc2ccccc2[nH]1)c1ccccc1O | inconclusive: 35.5 µM [falling, partial curve, poor fit] | 
54 | CCOC(=O)Cn1c(=O)n(Cc2ccco2)c(=O)c2ccc(C(=O)NC3CCCC3)cc21 |  | inconclusive: 0.897%
55 | NC(=O)c1nsc(C(=O)N(c2cccc(F)c2)C(C(=O)NC2CCCC2)c2ccc(O)cc2)c1N (stereo not drawn) | inconclusive: 4.47 µM [rising, full curve] | 
56 | CCN(CC(=O)Nc1ccccc1C(F)(F)F)C(=O)c1oc2ccc(OC)cc2c1C |  | inconclusive: 1.9%
57 | CCN1C(=NCC2CC2)N[C@@H](c2ccccc2)C(C(=O)OC)=C1C | inconclusive: 0.398 µM [falling, partial curve, poor fit] | 
58 | CCc1c(C2(O)CCCCC2)[nH]c2c(C(=O)OC)cc(Cl)cc12 | inconclusive: 1.26 µM [rising, full curve] | 
59 | CCN(CC)CCCNc1nc2ccccc2c2nc(-c3ccncc3)nn12 |  | inconclusive: 2.17%
60 | COc1ccc(S(=O)(=O)Nc2ccc(Cc3ccncc3)cc2)cc1OC |  | inactive: 0.484%
61 | O=C(NC(=O)c1ccccc1Cl)C(=O)Nc1ccc(Cl)cc1 | inconclusive: 2.51 µM [falling, partial curve, poor fit] | 
62 | N#C/C(=C(/O)c1ccc(Cl)cc1)c1nc2ccccc2[nH]1 | inconclusive: 15.8 µM [falling, partial curve, poor fit] | 
63 | COCc1cc(C)nc(SCC(=O)Oc2ccccc2)c1C#N |  | inconclusive: 13.9%
64 | CN1CCN(S(=O)(=O)c2cccc(C(=O)N(c3ccccn3)C3CCCCC3)c2)CC1 |  | inconclusive: -0.242%
65 | CCN=c1scc(-c2ccco2)n1/N=C/c1ccc(O)cc1 | inconclusive: 16.4 µM [falling, single point] | 
66 | CCOC(=O)c1cnc2ccc(OCC)cc2c1NCc1ccccc1 |  | inconclusive: 7.47%
67 | Cc1cccc(C)c1NC(=O)COc1ccc2c(C)c(Cc3ccccc3)c(=O)oc2c1 |  | inactive: 4.95%
68 | COc1cc2c(cc1OC)C(C)N(C(=O)c1c(-c3ccccc3)noc1C)CC2 (stereo not drawn) |  | inconclusive: -23.1%
69 | FC(F)(F)c1cccc(NC(=S)NNC(=S)Nc2ccc(Cl)cc2)c1 |  | inconclusive: 16.5%
70 | Cc1ccc(CNc2nc3ccccc3n3cnnc23)cc1 | inconclusive: 0.231 µM [rising, full curve] | 
71 | N#Cc1cc([N+](=O)[O-])ccc1NCCCn1ccnc1 |  | inactive: -1.15%
72 | CCCCNC(=S)N(C)/N=C/c1ccccc1C(=O)O |  | inconclusive: 15.1%
73 | CN(C)S(=O)(=O)c1ccc(C(=O)NCCOc2ccccc2)cc1 |  | inconclusive: -1.6%
74 | CC1(C)Cc2c(c(N3CCOCC3)nc3sc(-c4ccc(C(=O)O)o4)c(N)c23)CO1 |  | inconclusive: -4.13%
75 | Cc1cc2nc(-c3ccc(=O)[nH]c3)n(Cc3ccccc3)c2cc1C | inconclusive: 35.5 µM [falling, single point] | 
76 | COc1cc2c(cc1OC)C(=O)N(C)CC2 |  | inactive: 4.46%
77 | COc1ccc(-c2csc3ncnc(N4CCN(S(=O)(=O)c5ccc(Cl)s5)CC4)c23)cc1 |  | inactive: -11.8%
78 | COc1cccc(-c2noc(CCCC(=O)NC3CCCC3)n2)c1 | inconclusive: 0.355 µM [rising, full curve] | 
